Experimental findings from article PMC7545163 are described below.

Protein sequences, listed by entry. Tags and fused reporters are not part of them.
UniProt Q9CQY1: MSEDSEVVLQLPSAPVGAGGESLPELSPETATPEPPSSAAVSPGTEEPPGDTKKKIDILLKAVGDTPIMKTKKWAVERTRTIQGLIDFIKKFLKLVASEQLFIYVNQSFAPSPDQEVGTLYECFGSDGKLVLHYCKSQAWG
UniProt Q99J83: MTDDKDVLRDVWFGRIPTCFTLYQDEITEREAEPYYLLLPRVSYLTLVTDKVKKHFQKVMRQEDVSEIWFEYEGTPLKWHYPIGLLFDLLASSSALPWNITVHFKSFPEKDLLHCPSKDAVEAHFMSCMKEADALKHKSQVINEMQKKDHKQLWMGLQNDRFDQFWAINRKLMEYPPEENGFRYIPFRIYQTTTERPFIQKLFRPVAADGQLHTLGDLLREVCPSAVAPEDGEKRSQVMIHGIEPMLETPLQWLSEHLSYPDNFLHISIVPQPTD

No constants are given. Whether binding was seen depends on the method and setting. In cells and extracts the contact can be indirect. Some results given as binding are weak or reduced against the parent protein; the word gives no strength. Tags and fused reporters may be left off the sequences shown.

The target of assay [1] is FLAG-Atg12 (mouse) (mouse) (UniProt Q9CQY1). Put plainly: co-IP.
Assay [2] deals with FLAG-Atg5 (mouse) (mouse) (UniProt Q99J83). Put plainly: co-IP.

B1: Myc-Msr1 (mouse macrophage scavenger receptor 1) (receptor, UniProt P30204 1-458)
chain: MTKEMTENQRLCPHEQEDADCSSESVKFDARSMTASLPHSTKNGPSLQEKLKSFKAALIALYLLVFAVLIPVVGIVTAQLLNWEMKNCLVCSLNTSDTSQGPMEKENTSKVEMRFTIIMEHMKDMEERIESISNSKADLIDTERFQNFSMATDQRLNDILLQLNSLISSVQEHGNSLDAISKSLQSLNMTLLDVQLHTETLNVRVRESTAKQQEDISKLEERVYKVSAEVQSVKEEQAHVEQEVKQEVRVLNNITNDLRLKDWEHSQTLKNITFIQGPPGPQGEKGDRGLTGQTGPPGAPGIRGIPGVKGDRGQIGFPGGRGNPGAPGKPGRSGSPGPKGQKGEKGSVGGSTPLKTVRLVGGSGAHEGRVEIFHQGQWGTICDDRWDIRAGQVVCRSLGYQEVLAVHKRAHFGQGTGPIWLNEVMCFGRESSIENCKINQWGVLSCSHSEDAGVTCTS
With B1, the binding result in assay [1] and in assay [2] was “binds” throughout.
